Screen size: about 2,000 compounds; about 190 (9.5%) were called active. Not shown: some 14% with an inconclusive outcome.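 Rule for the calls: active = fitted activation curve crossing 40% at a concentration no higher than the sample's top valid tested dose; inconclusive = flat fitted curve at 30% to 70% activation, or poor curve fit; inactive = signal decrease, flat curve within 30%, or the rest.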 Most of the strongest results are missing from this list.
experiment: HSF-1 reporter activators over prolonged exposure, confirmation, cell-based, mouse, luciferase, cherry-pick, dose (AID 602296); conditions: NIH3T3-HGL HSF-1 response element luciferase, 48 h; at 26 µM (top of the series) unless noted;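 note: test compounds applied by themselves with no MG132 co-treatment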

activation, inactive:
CC(C)(C)c1ccc(OCC(=O)NN2Cc3ccccc3C2=N)cc1 10.8%
Cn1c(=O)c2c(nc(NCCO)n2C)n(C)c1=O 8.02%
OC[C@@H](O)C1OC2NC(=S)OC2C1O (stereo partly specified) -1.17%
CSc1ccc(C2C(C#N)=C(N)N(c3ccccc3)C3=C2C(=O)CCC3)cc1 (stereo unspecified) 8.29%
Cc1cc(Cl)ccc1C(=O)C1CCCN(C(=O)c2cnsn2)C1 (stereo unspecified) 13.6%
C=CCSC1=C(C#N)C(c2cccc(OC)c2)CC(=O)N1 (stereo unspecified) -3.87%
CCCCc1ccc(NS(=O)(=O)c2c(C)n(C)c(=O)n(C)c2=O)cc1 12.3%
O=C(Oc1cccc2cccnc12)c1ccc(Br)o1 11.6%
COc1cccc(N(CC(=O)N2CCc3ccccc3C2)S(C)(=O)=O)c1 7.66%
CC(=O)c1ccc(NC(=O)CCCN2C(=O)/C(=C/C(C)=C/c3ccccc3)SC2=S)cc1 -9.9%
O=C(c1ccc2nccnc2c1)N1CCCC(Nc2ccc(F)c(F)c2)C1 (stereo unspecified) 3.84%
Cc1cccc2cc(CN(Cc3ccco3)C(c3nnnn3CCc3ccccc3)C(C)C)c(=O)[nH]c12 (stereo unspecified) -36.5%
CC(C)c1nnc(SCc2ccc(CSc3nnc(C(C)C)n3N)cc2)n1N 4.27%
COc1ccc2cc(S(=O)(=O)N3CCCCC3)ccc2c1S(=O)(=O)N1CCCCC1 -15.5%
CCn1cc(C(=O)NN)c(=O)c2cc(F)c(NC3CCCCC3)cc21 4.29%
CCN(CC)CCCN1C(=O)c2oc3ccccc3c(=O)c2C1c1cccc(OC)c1OC (stereo unspecified) 3.52%
CCOC(=O)c1c(CN2CCC(C)CC2)n(C)c2cc(Br)c(OC)cc12 -19.1%
CCCCNc1nc(Nc2ccc(C)c(Cl)c2)c2cnn(C)c2n1 -101%
BrC(/C=C\c1ccccc1)=N/Nc1nc(N2CCOCC2)nc(N2CCOCC2)n1 -11.9%
O=C(CCCl)Nc1nc2c(s1)CCc1ccccc1-2 -39.2% [at 12 µM]
Cc1ccc(N(CCCCN2C(=O)c3ccccc3C2=O)C(=O)c2cccc([N+](=O)[O-])c2)cc1 -13.6%
COc1cc(NC(=O)C2=C(N3CCOCC3)/C(=C\c3ccc(Br)cc3)CC2)cc(OC)c1OC -13.4%
CCOC(=O)C1=C(c2ccccc2)NC(SC)=C(C#N)C1c1ccco1 (stereo unspecified) -20.1%
Cc1cccc(-[n+]2c(C)cc(C)c3c(=O)[nH]c(=O)[nH]c32)c1 2.83%
CC1SC(c2ccc(Cl)cc2)NC1=O (stereo unspecified) 2.02%
Cc1ccc(NC(=O)CCS(=O)(=O)c2ccc3c(c2)NC(=O)C(C)S3)nc1 (stereo unspecified) -0.18%
CCOC(=O)N1CCN(C(=O)c2cc(-c3ccc(OCC)cc3)nc3ccccc23)CC1 -88.9%
C/C(=N\NC(=O)CC1N=C(Cc2ccccc2)NNC1=O)c1ccc(C)cc1 (stereo unspecified) -5.66%
S=c1[nH]c2cc(Cl)c3cccnc3c2o1 -4.85%
O=c1cc(-c2ccc(Cl)c(Cl)c2)[nH][nH]1 -8.95%
O=C(CS(=O)(=O)c1ccccc1)c1cc2cc(F)ccc2oc1=O 19.1%
Cc1ccc(C)c(NC(=O)CS(=O)(=O)c2cn(C)c3ccccc23)c1 -5.97%
Clc1ccc(CCNc2nc3ccccc3n3nnnc23)cc1 -11.4%
CCOC(=O)CC1NCCc2c1[nH]c1ccc(OC)cc21 (stereo unspecified) -3.5%
Cc1cccc(C)c1N1CCN(S(=O)(=O)c2ccc(F)cc2)CC1 -43.5%
CCOC(=O)COc1ccc(/C=C2/SC(=Nc3ccccc3)N(Cc3cccnc3)C2=O)cc1OC -37.4%
CC(C)(C)OC(=O)N1CSC[C@H]1C(=O)NC[C@H](CC(=O)O)c1ccc(Cl)cc1 16.7%
Cc1ccc(C(NC(=O)/C=C\c2ccc3c(c2)OCO3)C(=O)Nc2ccc3c(c2)OCO3)cc1 (stereo unspecified) 3.46%
Clc1ccc(CNC2CCN(Cc3ccccc3)CC2)cc1 -6.16%
Cc1cc(NC(=O)CSc2nc3c(sc4ccccc43)c(=O)n2CCCN2CCOCC2)n[nH]1 -18.9%
O=c1[nH]c2ccccc2cc1CN(Cc1cccnc1)S(=O)(=O)c1ccc([N+](=O)[O-])cc1 -6.59%
CCC(C)Sc1nc2c([nH]c3ccccc32)c(=O)n1C (stereo unspecified) 0.12%
O=[N+]([O-])c1cccc(-c2nnc(CNC3CC3)o2)c1 6.78%
CCOC(=O)c1cn[nH]c1C(F)(F)F -11.9%
Cc1ccc(-c2csc3nc[nH]c(=O)c23)c(C)c1 -7.66%
CCN(Cc1ccccc1)C(=O)C1CCN(C/C(C)=C/c2ccccc2)CC1 6.1%
Cc1ccc(-c2cn(S(=O)(=O)c3ccc(C)cc3)nc2N)cc1 -18.8%
O=[N+]([O-])c1ccc(Sc2ncccn2)c([N+](=O)[O-])c1 -101%
COc1cc(-c2cn(S(=O)(=O)c3cccc4nsnc34)nc2N)cc(OC)c1OC -3.25%
O=C(Nc1ccc(Cl)cc1)Nc1csc([N+](=O)[O-])c1 16.5%
COc1ccc(NS(=O)(=O)c2cccc(C(=O)N(C)Cc3ccc(SC)cc3)c2)cc1 -25.7%
Cc1cccc(-c2cc(C(=O)Nc3ccncc3)c3ccccc3n2)c1 -1.62%
CCOC(=O)C(=CNc1ccc(C#N)cc1)C(=O)OCC 5.11%
O=C(Nc1ccccc1N1CCN(C(=O)c2ccc(Cl)cc2)CC1)c1cccc([N+](=O)[O-])c1 14.5%
CCCCCCC1CCC(C(=O)NC(CCSC)C(=O)NC(C(=O)OC)C(C)C)CC1 (stereo unspecified) 3.61%
O=[N+]([O-])c1cccc(-c2ccc3nnc(SCc4ccccn4)n3n2)c1 6.4%
COc1ccc(CNC(=O)CCC(=O)N2CC(C)Oc3ccccc32)cc1 (stereo unspecified) 0.672%
Cc1ccccc1-c1cc(=O)c2c(O)cccc2o1 18.5%
C=CCSc1nc(-c2ccc(OC)cc2)c(C#N)c(=O)n1CC=C -29.2%
COC(=O)c1ccc2c(c1O)C(=O)c1ccccc1C2=O 4.71%
CCc1cccc(NS(=O)(=O)c2ccc3c(c2)NC(=O)C(C)S3)c1 (stereo unspecified) -41.7%
CCN(CC)S(=O)(=O)c1ccc2c(c1)nc(SCC(=O)NC1CC1)n2-c1ccccc1OC -3.87%
CCC(=NC(C)c1ccccc1)c1c(O)n(C)c(=O)n(C)c1=O (stereo unspecified) -26.4%
Cc1ccc(/C=N/N(Cc2ccccc2)c2ccccc2)o1 -5.13%
COc1ccc(CCN=C(NS(=O)(=O)c2ccccc2)c2ccccc2)cc1OC 7.5%
CCC(=O)OCCNc1cc(Sc2nccn2C)c2nonc2c1[N+](=O)[O-] -101%
COc1ccccc1CNC(=O)c1ccc(NS(=O)(=O)c2cccs2)cc1 13.6%
CSc1nc(-c2ccccc2)nc(C(Cl)Cl)n1 -96.7%
O=C(CN(C(=O)c1csnn1)c1ccc(F)c(Cl)c1)NCc1ccc(F)cc1 -5.21%
CC(Nc1cc(N2CCNCC2)ccc1[N+](=O)[O-])c1ccccc1 (stereo unspecified) -1.04%
COc1ccc(CCNC(=O)Nc2cccc([N+](=O)[O-])c2)cc1OC -9.08%
COc1ccc(/C=N/Nc2cc(C)nc3ccc(Br)cc23)cc1 -106%
O=C(Nc1ccccc1O)c1cccc(S(=O)(=O)Nc2ccccc2O)c1 7.3%
Cc1ccc(/C=C/C(=O)Nc2ccc(S(=O)(=O)Nc3cc(C)nc(C)n3)cc2)cc1 -32.4%
NC(=O)c1ccc(NC(=O)CC23CC4CC(CC(Br)(C4)C2)C3)cc1 2.54%
CC1(C)Cc2c(C#N)c(N3CCCC3)nc(-c3ccco3)c2CO1 -13%
Brc1ccc2c(c1)C(c1cccnc1)=NNC(c1cccs1)=N2 -23.4%
O=C1CCN(C(=O)Nc2ccccc2Cl)N1 4.56%
Cc1ccc(C)c(NC(=O)C2CC(O)CN2C(=O)Oc2ccccc2)c1 (stereo unspecified) -6.42%
O=[N+]([O-])/C=C/c1ccc2c(ccn2Cc2ccccc2)c1 -103%
Cc1ccccc1NC(=O)CSc1nc(Nc2ccccc2)nc(N2CCOCC2)n1 -24.3%
Cc1ccc2oc(C(Cl)(Cl)Cl)cc(=O)c2c1 -33.6%
Cc1ccc(O)c(NC(=O)COc2cc(C)ccc2C)c1 -33.9%
CCOC(=O)CC(NS(=O)(=O)c1ccc2[nH]cc(C(=O)O)c(=O)c2c1)c1ccc(OCC)c(OC)c1 (stereo unspecified) 4.46%
CCOC(=O)c1c(C)[nH]c(C)c1S(=O)(=O)N1CCN(c2ccc(F)cc2)CC1 3.87%
CCCC(=O)NC(c1ccc(N(C)C)cc1)c1ccc2cccnc2c1O (stereo unspecified) -66.1%
COc1cc2[nH]c(=S)nc(NCc3ccc(Cl)cc3)c2cc1OC 3.41%
Cc1cccc(/C=C/C(=O)c2ccc([N+](=O)[O-])o2)c1 -100%
COc1cc(C(=O)Nc2ccc(S(=O)(=O)N3CCc4ccccc43)cc2)cc(OC)c1OC -48.5%
C=CCn1c(C)cc(C(=O)CSc2nc(N)cc(N)n2)c1C -3.17%
CC(C)C(C)N(Cc1ccc(C(=O)O)cc1)C(=O)c1ccc2ccccc2n1 (stereo unspecified) -7.06%

Looked up by compound from the entries so far:
activation, inactive:
COc1ccccc1CNC(=O)c1ccc(NS(=O)(=O)c2cccs2)cc1 13.6%
O=C(CS(=O)(=O)c1ccccc1)c1cc2cc(F)ccc2oc1=O 19.1%
BrC(/C=C\c1ccccc1)=N/Nc1nc(N2CCOCC2)nc(N2CCOCC2)n1 -11.9%
CCOC(=O)C1=C(c2ccccc2)NC(SC)=C(C#N)C1c1ccco1 (stereo unspecified) -20.1%
